Patent publication US7105518B2, “Thiopyrane-4-ones as DNA protein kinase inhibitors” (priority 2001, dated 2006)
Some of these results come from one statement about several compounds together. At least one compound was matched to its structure with a doubt left.

Sequences of proteins named here, by UniProt entry; tags and fusion partners are left off.
UniProt P78527, whole entry: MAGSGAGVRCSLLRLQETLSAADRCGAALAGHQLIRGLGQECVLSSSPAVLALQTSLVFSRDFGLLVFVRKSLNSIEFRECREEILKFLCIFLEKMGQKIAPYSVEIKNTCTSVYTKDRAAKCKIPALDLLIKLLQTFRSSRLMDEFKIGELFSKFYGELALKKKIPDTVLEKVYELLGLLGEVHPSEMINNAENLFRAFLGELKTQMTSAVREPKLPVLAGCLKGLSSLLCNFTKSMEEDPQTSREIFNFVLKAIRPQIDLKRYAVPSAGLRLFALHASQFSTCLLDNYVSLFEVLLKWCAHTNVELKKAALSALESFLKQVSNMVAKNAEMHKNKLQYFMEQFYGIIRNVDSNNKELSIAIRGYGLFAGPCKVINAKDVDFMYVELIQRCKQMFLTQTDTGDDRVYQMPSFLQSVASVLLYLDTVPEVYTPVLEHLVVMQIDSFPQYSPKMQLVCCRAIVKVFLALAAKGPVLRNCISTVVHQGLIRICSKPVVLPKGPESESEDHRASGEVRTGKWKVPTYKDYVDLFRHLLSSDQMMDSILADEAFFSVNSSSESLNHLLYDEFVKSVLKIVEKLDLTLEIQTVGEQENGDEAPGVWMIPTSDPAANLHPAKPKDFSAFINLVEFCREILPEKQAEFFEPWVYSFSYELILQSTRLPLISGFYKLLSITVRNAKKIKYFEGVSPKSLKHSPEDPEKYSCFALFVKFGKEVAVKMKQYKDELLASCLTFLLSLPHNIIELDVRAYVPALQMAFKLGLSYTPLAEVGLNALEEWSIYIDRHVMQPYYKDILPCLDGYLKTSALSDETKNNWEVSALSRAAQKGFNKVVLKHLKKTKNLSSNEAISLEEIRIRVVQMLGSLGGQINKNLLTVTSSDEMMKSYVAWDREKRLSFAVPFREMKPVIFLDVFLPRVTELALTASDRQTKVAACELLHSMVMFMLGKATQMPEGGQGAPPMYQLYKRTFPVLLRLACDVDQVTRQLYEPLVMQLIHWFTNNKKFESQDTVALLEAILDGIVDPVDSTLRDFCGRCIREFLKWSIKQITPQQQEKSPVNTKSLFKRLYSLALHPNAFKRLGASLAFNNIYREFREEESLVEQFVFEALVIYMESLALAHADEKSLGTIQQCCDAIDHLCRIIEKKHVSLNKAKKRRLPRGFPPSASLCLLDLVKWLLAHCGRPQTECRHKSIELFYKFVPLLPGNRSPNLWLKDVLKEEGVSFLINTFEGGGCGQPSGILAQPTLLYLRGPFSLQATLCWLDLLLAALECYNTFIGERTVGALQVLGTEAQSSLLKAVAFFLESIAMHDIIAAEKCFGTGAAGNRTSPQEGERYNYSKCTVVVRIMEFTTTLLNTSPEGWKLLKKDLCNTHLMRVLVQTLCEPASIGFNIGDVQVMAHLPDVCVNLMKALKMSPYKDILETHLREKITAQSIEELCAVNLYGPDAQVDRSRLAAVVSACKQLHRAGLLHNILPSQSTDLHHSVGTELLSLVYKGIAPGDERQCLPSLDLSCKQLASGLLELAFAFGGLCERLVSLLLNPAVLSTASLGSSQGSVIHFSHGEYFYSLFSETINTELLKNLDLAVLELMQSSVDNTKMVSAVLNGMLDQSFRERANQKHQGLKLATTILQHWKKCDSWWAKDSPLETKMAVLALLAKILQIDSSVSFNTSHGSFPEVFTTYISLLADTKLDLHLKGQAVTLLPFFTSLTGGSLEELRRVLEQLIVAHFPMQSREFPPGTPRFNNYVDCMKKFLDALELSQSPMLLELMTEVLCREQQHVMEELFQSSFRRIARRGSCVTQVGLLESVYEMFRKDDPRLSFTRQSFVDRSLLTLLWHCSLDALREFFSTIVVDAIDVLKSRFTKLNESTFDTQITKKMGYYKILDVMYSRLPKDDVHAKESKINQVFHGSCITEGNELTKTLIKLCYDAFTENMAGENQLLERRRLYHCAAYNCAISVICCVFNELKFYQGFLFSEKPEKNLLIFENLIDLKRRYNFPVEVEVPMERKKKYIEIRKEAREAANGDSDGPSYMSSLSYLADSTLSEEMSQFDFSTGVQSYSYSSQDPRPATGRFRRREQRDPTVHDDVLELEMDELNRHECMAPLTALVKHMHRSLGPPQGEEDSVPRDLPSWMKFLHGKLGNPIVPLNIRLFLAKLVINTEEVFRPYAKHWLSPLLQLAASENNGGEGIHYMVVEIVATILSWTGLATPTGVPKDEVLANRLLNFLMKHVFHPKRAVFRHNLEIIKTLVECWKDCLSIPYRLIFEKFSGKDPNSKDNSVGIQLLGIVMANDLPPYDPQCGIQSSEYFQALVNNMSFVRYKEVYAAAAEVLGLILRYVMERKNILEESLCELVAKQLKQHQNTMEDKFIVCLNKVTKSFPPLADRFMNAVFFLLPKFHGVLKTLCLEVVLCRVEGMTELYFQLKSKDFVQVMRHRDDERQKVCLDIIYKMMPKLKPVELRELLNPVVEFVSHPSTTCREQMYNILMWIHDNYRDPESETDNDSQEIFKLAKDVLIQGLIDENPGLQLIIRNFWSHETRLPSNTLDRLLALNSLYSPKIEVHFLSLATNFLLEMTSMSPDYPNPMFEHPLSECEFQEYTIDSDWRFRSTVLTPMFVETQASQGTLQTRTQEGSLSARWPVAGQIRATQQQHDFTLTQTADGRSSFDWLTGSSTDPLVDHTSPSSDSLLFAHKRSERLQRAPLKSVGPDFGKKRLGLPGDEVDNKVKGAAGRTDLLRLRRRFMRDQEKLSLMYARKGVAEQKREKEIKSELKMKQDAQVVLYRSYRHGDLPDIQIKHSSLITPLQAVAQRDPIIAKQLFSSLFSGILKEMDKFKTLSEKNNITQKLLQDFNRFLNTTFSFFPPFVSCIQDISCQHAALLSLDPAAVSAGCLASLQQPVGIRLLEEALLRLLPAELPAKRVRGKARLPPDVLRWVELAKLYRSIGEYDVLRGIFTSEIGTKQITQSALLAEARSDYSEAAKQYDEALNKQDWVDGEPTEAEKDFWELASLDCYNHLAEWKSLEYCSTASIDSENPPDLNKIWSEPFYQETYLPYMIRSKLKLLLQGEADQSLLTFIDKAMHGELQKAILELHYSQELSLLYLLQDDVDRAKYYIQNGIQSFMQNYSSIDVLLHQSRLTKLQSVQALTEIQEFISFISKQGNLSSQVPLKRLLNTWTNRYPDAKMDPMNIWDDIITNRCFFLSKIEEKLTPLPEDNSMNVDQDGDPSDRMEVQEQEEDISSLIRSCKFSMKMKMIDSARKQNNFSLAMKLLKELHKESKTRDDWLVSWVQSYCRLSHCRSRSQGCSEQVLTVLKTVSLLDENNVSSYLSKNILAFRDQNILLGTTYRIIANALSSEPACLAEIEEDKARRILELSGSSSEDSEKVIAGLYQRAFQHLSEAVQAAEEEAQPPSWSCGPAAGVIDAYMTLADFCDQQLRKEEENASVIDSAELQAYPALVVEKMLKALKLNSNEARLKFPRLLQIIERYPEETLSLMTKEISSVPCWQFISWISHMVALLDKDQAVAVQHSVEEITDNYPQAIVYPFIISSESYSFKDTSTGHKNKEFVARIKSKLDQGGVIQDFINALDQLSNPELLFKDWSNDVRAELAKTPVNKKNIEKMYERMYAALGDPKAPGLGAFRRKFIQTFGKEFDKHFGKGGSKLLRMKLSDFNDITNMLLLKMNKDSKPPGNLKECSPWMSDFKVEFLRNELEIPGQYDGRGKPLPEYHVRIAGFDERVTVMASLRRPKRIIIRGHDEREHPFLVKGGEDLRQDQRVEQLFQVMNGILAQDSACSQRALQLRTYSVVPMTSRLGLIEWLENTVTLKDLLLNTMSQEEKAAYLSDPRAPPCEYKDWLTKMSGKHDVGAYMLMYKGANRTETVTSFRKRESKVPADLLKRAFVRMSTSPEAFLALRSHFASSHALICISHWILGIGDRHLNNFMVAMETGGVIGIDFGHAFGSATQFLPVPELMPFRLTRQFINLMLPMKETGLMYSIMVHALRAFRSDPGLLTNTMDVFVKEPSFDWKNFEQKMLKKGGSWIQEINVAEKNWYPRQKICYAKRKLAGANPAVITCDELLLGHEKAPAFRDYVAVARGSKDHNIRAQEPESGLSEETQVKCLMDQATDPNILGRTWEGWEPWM

molecular target: T1, Mammalian DNA-PK, isolated from Hela cell nuclear extract (Homo sapiens, UniProt P78527); assay: DNA-PK inhibition assay (33P-ATP, phosphocellulose filter, scintillation counting); type: biochemical; conditions: not given
T1 construct: Mammalian DNA-PK, isolated from Hela cell nuclear extract; endogenous in cells; host or cells: HeLa cell nuclear extract
Experimental: In order to assess the inhibitory action of the compounds against DNA-PK in vitro, the following assay was used.
The total assay volume per well was 40 μl.
After 10 minutes of incubation at 30° C. the reactions were initiated by the addition of Na-ATP (50 μM final), ^33P-γATP and a 30mer double stranded DNA oligonucleotide (10 ng/μl) in a volume of 10 μl. Designated positive and negative reaction wells were done in combination with compound wells (unknowns) in order to calculate % enzyme activities. The plates were then shaken for 2 minutes and incubated at 30° C. for 45 minutes.
Following the incubation, the reactions were quenched by the addition of 50 μl 30% acetic acid to each well. The plates were then shaken for 5 minutes and the contents of each plate (80 μl from each well) transferred over to a 96 well Polyfiltronics filtration plate, containing P81-phosphocellulose membrane (TRADE MARK)(Whatman, UK). The solutions were vacuum pumped through the membrane and each well membrane washed four times using 300 μl of 15% acetic acid. The well membranes were then air dried and 20 μl of scintillant was added to each well.
The plates were transferred to a TopCount NXT (TRADE MARK) (Packard, UK) for scintillation counting. Values recorded are counts per minute (cpm) following a 1 minute counting time for each well.
The enzyme activity for each compound is then calculated using the following equation: […]
In Table 1 below, the results are IC50 values (the concentration at which 50% of the enzyme activity is inhibited). These are determined over a range of different concentrations, normally from 10 μM down to 0.01 μM. Such IC50 values are used as comparative values to identify increased compound potencies.

SMILES | inhibition of DNA-PK at 1 μM
COC(=O)c1ccccc1-c1cccc(-c2cc(=O)cc(N3CCOCC3)s2)c1 [Compound 23] | at least 10%
COC(=O)C=Cc1cccc(-c2cccc(-c3cc(=O)cc(N4CCOCC4)s3)c2)c1 [Compound 22] | at least 10%
CC(=O)Nc1cccc(-c2ccc(-c3cc(=O)cc(N4CCOCC4)s3)cc2)c1 [Compound 10] | at least 10%
O=c1cc(-c2ccc(-c3ccccc3OCc3ccccc3)cc2)sc(N2CCOCC2)c1 [Compound 7] | at least 10%
COC(=O)c1cccc(-c2cccc(-c3cc(=O)cc(N4CCOCC4)s3)c2)c1 [Compound 36] | at least 10%
O=C1c2ccccc2C(=O)N1Cc1ccc(-c2cccc(-c3cc(=O)cc(N4CCOCC4)s3)c2)cc1 [Compound 27] | at least 10%
CC(=O)Nc1ccc(-c2cccc(-c3cc(=O)cc(N4CCOCC4)s3)c2)cc1 [Compound 50] | at least 10%
COc1ccc(-c2cccc(-c3cc(=O)cc(N4CCOCC4)s3)c2)cc1 [Compound 29] | at least 10%
O=c1cc(-c2cccc(-c3ccccc3OCc3ccccc3)c2)sc(N2CCOCC2)c1 [Compound 18] | at least 10%
Nc1ccccc1-c1cccc(-c2cc(=O)cc(N3CCOCC3)s2)c1 [Compound 47] | at least 10%
Nc1cccc(-c2ccc(-c3cc(=O)cc(N4CCOCC4)s3)cc2)c1 [Compound 15] | at least 10%
CC(=O)Nc1ccc(-c2ccc(-c3cc(=O)cc(N4CCOCC4)s3)cc2)cc1 [Compound 17] | at least 10%
O=c1cc(-c2ccc(-c3cccc(CO)c3)cc2)sc(N2CCOCC2)c1 [Compound 13] | at least 10%
O=c1cc(-c2cccc(-c3cccc(OC(F)(F)F)c3)c2)sc(N2CCOCC2)c1 [Compound 34] | at least 10%
O=C1c2ccccc2C(=O)N1Cc1cccc(-c2cccc(-c3cc(=O)cc(N4CCOCC4)s3)c2)c1 [Compound 26] | at least 10%
O=Cc1ccccc1-c1cccc(-c2cc(=O)cc(N3CCOCC3)s2)c1 [Compound 37] | at least 10%
COC(=O)C=Cc1cccc(-c2ccc(-c3cc(=O)cc(N4CCOCC4)s3)cc2)c1 [Compound 8] | at least 10%
CC(=O)c1cccc(-c2ccc(-c3cc(=O)cc(N4CCOCC4)s3)cc2)c1 [Compound 11] | at least 10%
CC(=O)c1ccccc1-c1cccc(-c2cc(=O)cc(N3CCOCC3)s2)c1 [Compound 28] | at least 10%
CCOC(=O)c1cccc(-c2cccc(-c3cc(=O)cc(N4CCOCC4)s3)c2)c1 [Compound 52] | at least 10%
O=c1cc(-c2cccc(-c3cccc(OCc4ccccc4)c3)c2)sc(N2CCOCC2)c1 [Compound 19] | at least 10%
COC(=O)c1ccc(-c2cccc(-c3cc(=O)cc(N4CCOCC4)s3)c2)cc1 [Compound 24] | at least 10%
CCOC(=O)c1cccc(-c2ccc(-c3cc(=O)cc(N4CCOCC4)s3)cc2)c1 [Compound 12] | at least 10%
COC(=O)c1ccc(-c2ccc(-c3cc(=O)cc(N4CCOCC4)s3)cc2)cc1 [Compound 9] | at least 10%

same assay, conditions: single concentration 1 μM

SMILES | inhibition of DNA-PK at 1 μM
NC(=O)c1ccccc1-c1ccc(-c2cc(=O)cc(N3CCOCC3)s2)cc1 [Compound 16] | at least 10%
O=c1cc(-c2ccc(/C=C/c3ccccc3)cc2)sc(N2CCOCC2)c1 [Compound 55] | at least 10%
O=c1cc(-c2cccc(-c3ccc4ccccc4c3)c2)sc(N2CCOCC2)c1 [Compound 66] | at least 10%
O=c1cc(-c2cccc(-c3ccco3)c2)sc(N2CCOCC2)c1 [Compound 67] | at least 10%
Cc1ccc(-c2ccc(-c3cc(=O)cc(N4CCOCC4)s3)cc2)c2ccccc12 [Compound 54] | at least 10%
O=c1cc(-c2ccc(-c3ccco3)cc2)sc(N2CCOCC2)c1 [Compound 58] | at least 10%
O=Cc1ccc(-c2cccc(-c3cc(=O)cc(N4CCOCC4)s3)c2)c2ccccc12 [Compound 71] | at least 10%
O=Cc1ccc(-c2ccc(-c3cc(=O)cc(N4CCOCC4)s3)cc2)c2ccccc12 [Compound 61] | at least 10%
O=c1cc(-c2cccc(-c3cc4ccccc4s3)c2)sc(N2CCOCC2)c1 [Compound 68] | at least 10%
